{
  "sequences": {"note": "The chains behind the UniProt entries cited, without tags or fusion partners.", "UniProt Q13838, whole entry, looked up": "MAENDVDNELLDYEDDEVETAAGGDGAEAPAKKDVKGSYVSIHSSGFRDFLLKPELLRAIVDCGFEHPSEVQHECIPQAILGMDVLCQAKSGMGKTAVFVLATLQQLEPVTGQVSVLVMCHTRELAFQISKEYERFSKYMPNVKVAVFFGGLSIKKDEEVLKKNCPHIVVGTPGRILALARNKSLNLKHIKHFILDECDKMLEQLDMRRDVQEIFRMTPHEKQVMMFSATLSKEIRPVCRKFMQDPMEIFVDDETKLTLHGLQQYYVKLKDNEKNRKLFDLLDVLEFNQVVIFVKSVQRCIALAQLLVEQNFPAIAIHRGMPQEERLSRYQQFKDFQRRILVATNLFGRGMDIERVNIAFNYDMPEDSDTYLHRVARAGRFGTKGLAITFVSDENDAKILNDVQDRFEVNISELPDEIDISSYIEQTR"},
  "source": "the supplement of paper PMC12067093",
  "about": "“Discovery and optimisation of a covalent ligand for TRIM25 and its application to targeted protein ubiquitination” (Chemical Science, 2025)",
  "key": {"[1]": {"target": "DDX39B_Q13838_165_KNCPHIVVGTPGR (UniProt Q13838)", "assay": "probe-labelled cysteine peptide fold change vs DMSO (competition) (log2 fold change); higher = less target engagement (more negative = stronger competition)", "details": "THP-1, incubation time: 4 h"}, "[2]": {"target": "DDX39B_Q13838_165_NCPHIVVGTPGR (UniProt Q13838)", "assay": "probe-labelled cysteine peptide fold change vs DMSO (competition) (log2 fold change); higher = less target engagement (more negative = stronger competition)", "details": "THP-1, incubation time: 4 h"}},
  "note": "The list shows a part of the results.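 Also: competitive chemoproteomic profiling in live THP-1 cells with an iodoacetamide desthiobiotin (IA-DTB) probe, comparing probe-labelled peptide intensities in compound-treated cells against DMSO-treated controls.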",
  "data": [
    {"smiles": "CC1Cc2ccccc2N1C(=O)C1CCCN(C(=O)CCl)C1", "note": "(mixture of isomers) [TRIM25 ligand 11 (diastereomer mixture)]", "values": [
      {"measurement": "probe-labelled cysteine peptide fold change", "setting": "[1]; 10 µM", "value": -0.0399},
      {"measurement": "probe-labelled cysteine peptide fold change", "setting": "[1]; 50 µM", "value": -0.0377},
      {"measurement": "probe-labelled cysteine peptide fold change", "setting": "[2]; 10 µM", "value": 0.0109},
      {"measurement": "probe-labelled cysteine peptide fold change", "setting": "[2]; 50 µM", "value": -0.0302}
    ]}
  ]
}
